These are yes or no findings as the source states them, for the method shown. Binding seen in cells or lysates may run through a third protein. Some results given as binding are weak or reduced against the parent protein; the word gives no strength.

Chains of the proteins cited; added tags and fusions are not shown.
UniProt P01106: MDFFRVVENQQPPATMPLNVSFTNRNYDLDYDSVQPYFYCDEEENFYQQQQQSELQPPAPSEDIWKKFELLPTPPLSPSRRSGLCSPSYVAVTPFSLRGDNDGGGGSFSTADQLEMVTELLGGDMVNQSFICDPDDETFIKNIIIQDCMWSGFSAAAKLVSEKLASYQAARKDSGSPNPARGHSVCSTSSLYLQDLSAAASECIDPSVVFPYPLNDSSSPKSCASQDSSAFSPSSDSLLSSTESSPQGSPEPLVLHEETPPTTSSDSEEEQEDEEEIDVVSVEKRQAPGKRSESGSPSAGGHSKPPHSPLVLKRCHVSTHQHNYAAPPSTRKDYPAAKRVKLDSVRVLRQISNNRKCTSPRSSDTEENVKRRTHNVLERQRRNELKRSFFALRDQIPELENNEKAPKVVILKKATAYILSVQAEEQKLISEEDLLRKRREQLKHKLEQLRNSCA
UniProt Q96DH6: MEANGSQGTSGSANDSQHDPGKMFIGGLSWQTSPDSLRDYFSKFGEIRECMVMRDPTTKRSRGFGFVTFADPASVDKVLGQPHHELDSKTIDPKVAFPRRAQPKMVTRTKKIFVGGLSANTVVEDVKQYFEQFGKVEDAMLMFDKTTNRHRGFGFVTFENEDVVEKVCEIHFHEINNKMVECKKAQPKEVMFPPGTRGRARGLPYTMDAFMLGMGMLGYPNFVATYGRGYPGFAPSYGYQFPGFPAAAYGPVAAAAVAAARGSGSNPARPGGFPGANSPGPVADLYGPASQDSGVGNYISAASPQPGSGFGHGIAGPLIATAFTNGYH

The results in this text go back to publication PMC6967093.

For assay [1], the target named is T1, ZEB1 (human (endogenous in AsPC-1 and BxPC-3)) (UniProt P37275).
T1 sequence: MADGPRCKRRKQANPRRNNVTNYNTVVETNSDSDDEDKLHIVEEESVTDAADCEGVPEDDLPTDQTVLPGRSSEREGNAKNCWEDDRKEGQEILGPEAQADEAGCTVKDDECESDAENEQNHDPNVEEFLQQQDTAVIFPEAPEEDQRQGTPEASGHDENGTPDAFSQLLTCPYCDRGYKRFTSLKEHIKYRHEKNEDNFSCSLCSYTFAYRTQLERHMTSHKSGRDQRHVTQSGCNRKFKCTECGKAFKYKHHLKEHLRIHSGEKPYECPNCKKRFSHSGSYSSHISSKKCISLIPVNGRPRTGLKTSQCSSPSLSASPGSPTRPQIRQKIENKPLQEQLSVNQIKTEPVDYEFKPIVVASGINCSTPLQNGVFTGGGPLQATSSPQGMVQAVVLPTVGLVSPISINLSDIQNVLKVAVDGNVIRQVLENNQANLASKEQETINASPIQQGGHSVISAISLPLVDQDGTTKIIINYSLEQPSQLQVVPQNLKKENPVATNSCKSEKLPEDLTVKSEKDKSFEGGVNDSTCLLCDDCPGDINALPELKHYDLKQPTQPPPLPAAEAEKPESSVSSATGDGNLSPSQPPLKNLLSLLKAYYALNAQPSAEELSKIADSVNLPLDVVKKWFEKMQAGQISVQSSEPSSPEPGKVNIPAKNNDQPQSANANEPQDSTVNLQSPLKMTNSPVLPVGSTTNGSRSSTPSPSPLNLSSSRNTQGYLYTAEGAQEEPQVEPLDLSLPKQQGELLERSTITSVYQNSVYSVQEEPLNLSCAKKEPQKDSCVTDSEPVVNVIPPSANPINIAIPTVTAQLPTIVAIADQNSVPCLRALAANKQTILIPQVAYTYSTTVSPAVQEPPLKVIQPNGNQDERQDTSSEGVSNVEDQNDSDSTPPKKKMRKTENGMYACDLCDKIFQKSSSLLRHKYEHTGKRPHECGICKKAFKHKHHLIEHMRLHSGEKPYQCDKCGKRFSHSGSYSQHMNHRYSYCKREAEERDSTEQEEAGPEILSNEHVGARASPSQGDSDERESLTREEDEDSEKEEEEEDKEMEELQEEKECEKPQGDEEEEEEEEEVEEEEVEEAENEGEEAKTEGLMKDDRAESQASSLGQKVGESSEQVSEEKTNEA
Nature of the assay: co-IP; endogenous proteins in whole lysates of AsPC-1 and BxPC-3 cells (IP lysis buffer); MSI2, ZEB1, c-Myc, pERK and IgG antibodies on magnetic beads, incubated with lysate supernatants overnight at 4 °C; Western blot with MSI2, ZEB1, pERK and c-Myc antibodies. For orientation: Immunoblotting shows a protein as a band on a membrane.

Assay [2] has as its target c-Myc (human (endogenous in AsPC-1 and BxPC-3)) (UniProt P01106). The assay is described as above.

With “Musashi RNA-binding protein 2 (from UniProt Q96DH6 1-328)”, the binding result in assay [1] and in assay [2] was “binds” in each case.
